Data as given in PubChem BioAssay AID743448 (Peter MacCallum Cancer Centre, 2014)
Shown is a random part of the 106 reagents, in one setting of the screen. 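Calls are per line and drug panel including etoposide, not vorinostat-specific; gene picks needed hits in two or more extra lines with vorinostat versus etoposide.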 A number with no mark means an inactive call.

Assay: 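Test whether knock-downs sensitising to vorinostat hold across several colon lines but not etoposide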 (follow-up of hits)
Cell system: four human colon cancer cell lines: HCT116-VR (vorinostat-resistant HCT116 derivative), SW480, SW620 and LIM1215
Reagent: siRNA pool against human genes, 40 nM siRNA pool
Timing: drug added two days after transfection, read one day later
Conditions: vorinostat 2.5 µM on one half of each plate, etoposide 5 µM on the other half
Cell line and drug panel: vorinostat-resistant HCT116 cells with etoposide
Detection: 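Caspase luminescence and viability fluorescence, each expressed relative to mock transfection and also as robust z-scores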
Scale: caspase ratio to mock: higher = more caspase activity than mock; viability ratio to mock: higher = more live cells than mock; caspase robust z-score: higher = more caspase activity, more apoptosis; viability robust z-score: higher = more live cells
Call rule: 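Hit means caspase ratio to mock at least 1.6, or viability ratio to mock at most 0.75; wells with strong death in the absence of drug get no call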
Calls: active = caspase or viability hit in this panel; inactive = no change, or unhealthy well

| gene | caspase ratio to mock | viability ratio to mock | caspase robust z-score | viability robust z-score |
| --- | --- | --- | --- | --- |
| THAP3 | 1.67 (active) | 0.87 | -0.06 | -0.37 |
| SEMA4F | 1.77 (active) | 1.02 | 0.07 | 0.56 |
| EIF2B5 | 0.69 (active) | 0.65 | -1.36 | -1.71 |
| TFAP2D | 1.63 (active) | 1.21 | -0.14 | 1.66 |
| CCDC59 | 2.48 (active) | 0.84 | 0.99 | -0.56 |
| UTP3 | 1.4 | 0.92 | -0.44 | -0.04 |
| MICALL2 | 3.36 (active) | 1.14 | 2.13 | 1.25 |
| RLN3 | 1.29 | 1.02 | -0.57 | 0.56 |
| NUP58 | 1.92 (active) | 0.84 | 0.26 | -0.52 |
| DPPA5 | 1.6 (active) | 0.99 | -0.13 | 0.38 |
| LRP3 | 1.63 (active) | 0.89 | -0.14 | -0.22 |
| EIF2B2 | 0.96 (active) | 0.68 | -1.02 | -1.52 |
| FLII | 2.23 (active) | 1.02 | 0.66 | 0.5 |
| CNOT1 | 5.67 (active) | 1.12 | 5.22 | 1.16 |
| EIF1AX | 0.86 (active) | 0.6 | -1.15 | -1.97 |
| VAX1 | 1.29 | 0.99 | -0.57 | 0.32 |
| PUF60 | 4.21 (active) | 0.97 | 3.29 | 0.22 |
| NPC1L1 | 1.14 | 1.02 | -0.76 | 0.54 |
| MAGOH | 2.48 (active) | 0.63 | 1.02 | -1.83 |
| GNG8 | 2.33 (active) | 0.84 | 0.8 | -0.59 |
| EIF4A1 | 0.7 | 0.76 | -1.35 | -0.98 |
| RNF186 | 1.09 | 1.01 | -0.82 | 0.5 |
| MRPL19 | 1.52 | 1.03 | -0.28 | 0.58 |
| PLAG1 | 1.96 (active) | 1.03 | 0.32 | 0.62 |
| TGM5 | 1.16 | 1.01 | -0.76 | 0.44 |
| EIF3I | 0.84 (active) | 0.68 | -1.16 | -1.55 |
| PNN | 1.86 (active) | 0.84 | 0.16 | -0.57 |
| C1orf52 | 1.75 (active) | 0.86 | 0.04 | -0.44 |
| FANCA | 2.16 (active) | 0.91 | 0.55 | -0.15 |
| MTF2 | 3.12 (active) | 0.73 | 1.79 | -1.22 |
| POLR2I | 2.64 (active) | 0.83 | 1.22 | -0.54 |
| OR2W5 | 1.72 (active) | 0.98 | -0.01 | 0.26 |
| SAP130 | 1.24 | 0.99 | -0.64 | 0.32 |
| TOX4 | 1.4 | 1.14 | -0.43 | 1.25 |
| SCRT2 | 1.75 (active) | 0.84 | 0.03 | -0.55 |
| MED26 | 3.92 (active) | 0.88 | 2.88 | -0.29 |
| RBM42 | 2.03 (active) | 0.7 | 0.42 | -1.44 |
| RBBP8 | 2.34 (active) | 0.98 | 0.81 | 0.27 |
| RERE | 1.64 (active) | 1.17 | -0.1 | 1.42 |
| SIN3A | 1.42 | 1.23 | -0.42 | 1.77 |
| VPS4A | 2.59 (active) | 0.92 | 1.17 | -0.11 |
| POLR2L | 1.91 (active) | 0.74 | 0.22 | -1.14 |
| C22orf15 | 1.11 | 1 | -0.8 | 0.44 |
| BDP1 | 0.64 (active) | 0.66 | -1.42 | -1.57 |
| OSBPL6 | 1.49 | 1.06 | -0.3 | 0.78 |
| SH3GLB2 | 1.16 | 1.07 | -0.76 | 0.84 |
| POLR2K | 2.65 (active) | 0.78 | 1.2 | -0.94 |
| DDX18 | 1.14 (active) | 0.72 | -0.77 | -1.25 |
| AQR | 2.88 (active) | 0.52 | 1.48 | -2.48 |
| NPEPPS | 0.97 (active) | 0.56 | -0.99 | -2.24 |

Laid out differently: entries from further up
gene | caspase ratio to mock | viability ratio to mock | caspase robust z-score | viability robust z-score
POLR2L | 1.91 (active) | 0.74 | 0.22 | -1.14
C22orf15 | 1.11 | 1 | -0.8 | 0.44
BDP1 | 0.64 (active) | 0.66 | -1.42 | -1.57
OSBPL6 | 1.49 | 1.06 | -0.3 | 0.78
SH3GLB2 | 1.16 | 1.07 | -0.76 | 0.84
POLR2K | 2.65 (active) | 0.78 | 1.2 | -0.94
